# Experimental data from patent US20240091247A1, “INHIBITOR FOR CHRONIC MYELOID LEUKEMIA STEM CELLS” (Ohara Pharmaceutical Co., Ltd., priority 2021, published 2024).
# At least one structure is not confirmed: it was looked up by name or label, or the drawing left a doubt.
# Tested on: LXN
# Experiment: LXN protein expression by Western blotting, OR21 with TKI (FIG. 5)
# Type: cell-based
# Details: K562 and KBM5 cells, 100 nM OR21, 1000 nM imatinib, 2.5 nM dasatinib, 1, 2 and 3 days, corrected with β actin
# Description: K562 cells (cell lines derived from CML) were purchased from JCRB cell bank and KBM5 cells (cell lines derived from CML) were provided by Dr. M. Beran (MD Anderson Cancer Center, University of Texas). These calls were cultured in an RPMI 1640 medium containing 10% fetal bovine serum (FBS) and 1% penicillin-streptomycin at 37° C. in atmosphere of 5% CO2.
# 0, 24, and 48 hours after the cell seeding, 100 nM OR21, a DNA methyltransferase inhibitor, was added. […] After the culture, the cells were collected, dissolved, and determined for protein expression level of LXN by Western blotting. […] The expression level of LXN shown in FIG. 5 represents each expression level of the cases when the LXN expression under each condition was corrected with β actin and the expression level in the control was taken as 1.0.
smiles,measurement,value
Cc1nc(Nc2ncc(C(=O)Nc3c(C)cccc3Cl)s2)cc(N2CCN(CCO)CC2)n1 [dasatinib],protein expression level of LXN,almost no effect
